Test results taken from paper PMC7840181.
These are yes or no findings as the source states them, for the method shown. In cells and extracts the contact can be indirect. A result given as binding can be weak or reduced; the word gives no strength. Tags and fused reporters may be left off the sequences shown.

Amino acid sequences for entries named in this document (tags omitted). A change or cut given only in a name is not applied to a line headed by its entry.
UniProt C0H571: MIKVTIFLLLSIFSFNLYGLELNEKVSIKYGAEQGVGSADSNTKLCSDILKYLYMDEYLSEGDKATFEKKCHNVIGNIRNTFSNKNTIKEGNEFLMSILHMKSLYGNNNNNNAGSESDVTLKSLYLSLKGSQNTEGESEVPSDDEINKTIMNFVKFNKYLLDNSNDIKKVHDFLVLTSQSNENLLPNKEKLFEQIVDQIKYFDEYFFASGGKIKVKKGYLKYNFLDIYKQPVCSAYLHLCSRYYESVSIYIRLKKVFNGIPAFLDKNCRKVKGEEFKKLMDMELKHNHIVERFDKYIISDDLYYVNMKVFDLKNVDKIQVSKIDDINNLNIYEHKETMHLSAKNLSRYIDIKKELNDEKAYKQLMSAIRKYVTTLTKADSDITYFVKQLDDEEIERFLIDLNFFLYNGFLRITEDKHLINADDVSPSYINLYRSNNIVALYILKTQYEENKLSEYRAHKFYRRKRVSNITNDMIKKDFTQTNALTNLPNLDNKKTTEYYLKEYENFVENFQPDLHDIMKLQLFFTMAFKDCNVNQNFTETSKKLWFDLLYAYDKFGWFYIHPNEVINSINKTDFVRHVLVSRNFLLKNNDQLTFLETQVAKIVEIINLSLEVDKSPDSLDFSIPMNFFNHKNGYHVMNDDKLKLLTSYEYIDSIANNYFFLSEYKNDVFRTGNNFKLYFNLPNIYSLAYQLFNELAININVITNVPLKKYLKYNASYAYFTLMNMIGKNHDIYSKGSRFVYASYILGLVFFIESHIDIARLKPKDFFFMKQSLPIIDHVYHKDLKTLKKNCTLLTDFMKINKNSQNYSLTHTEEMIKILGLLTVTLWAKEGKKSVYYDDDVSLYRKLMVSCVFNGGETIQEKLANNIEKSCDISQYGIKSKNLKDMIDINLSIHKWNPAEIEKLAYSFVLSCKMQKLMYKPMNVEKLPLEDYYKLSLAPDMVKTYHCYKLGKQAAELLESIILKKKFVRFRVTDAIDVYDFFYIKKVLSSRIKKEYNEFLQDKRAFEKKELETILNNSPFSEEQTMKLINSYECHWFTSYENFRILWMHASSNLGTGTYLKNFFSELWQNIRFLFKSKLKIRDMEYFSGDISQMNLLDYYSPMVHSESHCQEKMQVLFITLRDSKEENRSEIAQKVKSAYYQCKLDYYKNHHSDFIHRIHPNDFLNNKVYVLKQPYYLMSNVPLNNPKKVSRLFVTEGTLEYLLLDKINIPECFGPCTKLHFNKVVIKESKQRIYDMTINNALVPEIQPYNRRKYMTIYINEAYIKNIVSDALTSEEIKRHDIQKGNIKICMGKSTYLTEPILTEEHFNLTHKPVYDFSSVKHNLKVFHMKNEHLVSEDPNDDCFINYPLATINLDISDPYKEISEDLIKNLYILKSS

Target: T1, CLAG3-tv1 (CLAG3 with C-terminal 3xFLAG-3xHA-His8-Strept II tag) (Plasmodium falciparum)
T1 sequence: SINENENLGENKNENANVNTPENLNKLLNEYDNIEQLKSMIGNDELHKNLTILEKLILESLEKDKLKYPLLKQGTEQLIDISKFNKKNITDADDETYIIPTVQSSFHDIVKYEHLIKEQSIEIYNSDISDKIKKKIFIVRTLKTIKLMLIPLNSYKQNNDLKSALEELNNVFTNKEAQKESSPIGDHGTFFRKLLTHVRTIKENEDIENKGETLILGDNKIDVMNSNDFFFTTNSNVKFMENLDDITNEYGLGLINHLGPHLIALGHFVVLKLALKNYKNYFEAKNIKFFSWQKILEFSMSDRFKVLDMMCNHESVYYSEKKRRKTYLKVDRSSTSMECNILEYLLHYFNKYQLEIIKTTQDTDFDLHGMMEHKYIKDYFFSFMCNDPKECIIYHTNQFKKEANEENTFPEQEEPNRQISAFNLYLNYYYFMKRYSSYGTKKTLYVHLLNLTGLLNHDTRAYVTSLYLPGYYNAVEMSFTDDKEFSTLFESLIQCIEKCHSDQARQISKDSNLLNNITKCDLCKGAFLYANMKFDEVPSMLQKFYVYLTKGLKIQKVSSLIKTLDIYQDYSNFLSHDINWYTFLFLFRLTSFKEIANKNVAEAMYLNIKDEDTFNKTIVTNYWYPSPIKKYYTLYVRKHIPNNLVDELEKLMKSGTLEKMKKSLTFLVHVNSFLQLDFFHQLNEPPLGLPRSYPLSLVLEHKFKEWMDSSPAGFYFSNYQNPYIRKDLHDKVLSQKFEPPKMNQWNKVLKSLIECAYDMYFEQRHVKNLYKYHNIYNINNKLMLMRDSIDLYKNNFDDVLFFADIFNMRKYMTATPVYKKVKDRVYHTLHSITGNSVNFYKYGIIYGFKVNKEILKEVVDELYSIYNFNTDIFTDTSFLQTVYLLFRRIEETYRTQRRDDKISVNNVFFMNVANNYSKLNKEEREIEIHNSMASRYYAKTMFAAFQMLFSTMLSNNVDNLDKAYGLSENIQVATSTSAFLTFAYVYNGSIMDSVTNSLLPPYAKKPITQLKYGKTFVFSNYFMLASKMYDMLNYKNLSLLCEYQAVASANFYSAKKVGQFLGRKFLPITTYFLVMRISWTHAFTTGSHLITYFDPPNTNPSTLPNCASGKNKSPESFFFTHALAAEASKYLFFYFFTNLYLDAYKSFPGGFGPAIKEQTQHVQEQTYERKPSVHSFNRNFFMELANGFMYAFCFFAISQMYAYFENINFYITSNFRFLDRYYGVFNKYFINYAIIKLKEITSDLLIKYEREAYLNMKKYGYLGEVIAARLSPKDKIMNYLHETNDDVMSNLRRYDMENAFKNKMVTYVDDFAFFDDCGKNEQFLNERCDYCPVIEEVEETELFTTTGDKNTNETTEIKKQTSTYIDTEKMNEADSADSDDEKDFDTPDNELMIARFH
Test: co-IP; tagged CLAG3 as bait on anti-FLAG M2 agarose, clarified freeze-thaw lysate of schizont-infected erythrocytes, 500 mM NaCl, 10 mM Tris pH 7.5, overnight at 4°C, eluted with 3xFLAG peptide; Coomassie-stained gel

Substance: RhopH2-mVenus (RhopH2 with a monomeric Venus tag at the C-terminus) (from UniProt C0H571)
- binding: binds
